Measurements published in ChEMBL document CHEMBL4316593 (Eur J Med Chem, 2019).
The source gives many values for each of these; only a part stands here.

Experiments:
Assay type in all cases: cell-based
Conditions in all cases: U-87MG ATCC
[1] = Inhibition of RTK/PI3K/AKT/mTOR signaling in human U87 cells assessed as down regulation of PPP4R2 gene expression at cytotoxic IC50 measured after 48 hrs relative to control
[2] = Inhibition of RTK/PI3K/AKT/mTOR signaling in human U87 cells assessed as down regulation of TUBB2A gene expression at cytotoxic IC50 measured after 48 hrs relative to control
[3] = Inhibition of RTK/PI3K/AKT/mTOR signaling in human U87 cells assessed as up regulation of PTP4A3 gene expression at cytotoxic IC50 measured after 48 hrs relative to control
[4] = Inhibition of RTK/PI3K/AKT/mTOR signaling in human U87 cells assessed as down regulation of NCOA1 gene expression at cytotoxic IC50 measured after 48 hrs relative to control
[5] = Inhibition of RTK/PI3K/AKT/mTOR signaling in human U87 cells assessed as up regulation of PRKCSH gene expression at cytotoxic IC50 measured after 48 hrs relative to control
[6] = Inhibition of RTK/PI3K/AKT/mTOR signaling in human U87 cells assessed as up regulation of nectin cell adhesion molecule 2 gene expression at cytotoxic IC50 measured after 48 hrs relative to control
[7] = Inhibition of RTK/PI3K/AKT/mTOR signaling in human U87 cells assessed as up regulation of complement C3 gene expression at cytotoxic IC50 measured after 48 hrs relative to control
[8] = Inhibition of RTK/PI3K/AKT/mTOR signaling in human U87 cells assessed as up regulation of progestin and adipoQ receptor family member 7 gene expression at cytotoxic IC50 measured after 48 hrs relative to control
[9] = Inhibition of RTK/PI3K/AKT/mTOR signaling in human U87 cells assessed as up regulation of NME1 gene expression at cytotoxic IC50 measured after 48 hrs relative to control
[10] = Inhibition of RTK/PI3K/AKT/mTOR signaling in human U87 cells assessed as down regulation of ZXDC gene expression at cytotoxic IC50 measured after 48 hrs relative to control
[11] = Inhibition of RTK/PI3K/AKT/mTOR signaling in human U87 cells assessed as down regulation of SHOC2 gene expression at cytotoxic IC50 measured after 48 hrs relative to control
[12] = Inhibition of RTK/PI3K/AKT/mTOR signaling in human U87 cells assessed as up regulation of OBSCN gene expression at cytotoxic IC50 measured after 48 hrs relative to control
[13] = Inhibition of RTK/PI3K/AKT/mTOR signaling in human U87 cells assessed as up regulation of SIN3A gene expression at cytotoxic IC50 measured after 48 hrs relative to control
[14] = Inhibition of RTK/PI3K/AKT/mTOR signaling in human U87 cells assessed as down regulation of ZNF621 gene expression at cytotoxic IC50 measured after 48 hrs relative to control
[15] = Inhibition of RTK/PI3K/AKT/mTOR signaling in human U87 cells assessed as down regulation of LMO4 gene expression at cytotoxic IC50 measured after 48 hrs relative to control
[16] = Inhibition of RTK/PI3K/AKT/mTOR signaling in human U87 cells assessed as up regulation of Rho GTPase activating protein 4 gene expression at cytotoxic IC50 measured after 48 hrs relative to control
[17] = Inhibition of RTK/PI3K/AKT/mTOR signaling in human U87 cells assessed as down regulation of ZFAND5 gene expression at cytotoxic IC50 measured after 48 hrs relative to control
[18] = Inhibition of RTK/PI3K/AKT/mTOR signaling in human U87 cells assessed as up regulation of cellular retinoic acid binding protein 2 gene expression at cytotoxic IC50 measured after 48 hrs relative to control
[19] = Inhibition of RTK/PI3K/AKT/mTOR signaling in human U87 cells assessed as up regulation of EEF1B2 gene expression at cytotoxic IC50 measured after 48 hrs relative to control
[20] = Inhibition of RTK/PI3K/AKT/mTOR signaling in human U87 cells assessed as up regulation of mitochondrial ribosomal protein L12 gene expression at cytotoxic IC50 measured after 48 hrs relative to control
[21] = Inhibition of RTK/PI3K/AKT/mTOR signaling in human U87 cells assessed as down regulation of BICDL1 gene expression at cytotoxic IC50 measured after 48 hrs relative to control
[22] = Inhibition of RTK/PI3K/AKT/mTOR signaling in human U87 cells assessed as down regulation of TCP1 gene expression at cytotoxic IC50 measured after 48 hrs relative to control
[23] = Inhibition of RTK/PI3K/AKT/mTOR signaling in human U87 cells assessed as up regulation of peptidylprolyl isomerase like 3 gene expression at cytotoxic IC50 measured after 48 hrs relative to control
[24] = Inhibition of RTK/PI3K/AKT/mTOR signaling in human U87 cells assessed as up regulation of collagen type IX alpha 3 chain gene expression at cytotoxic IC50 measured after 48 hrs relative to control
[25] = Inhibition of RTK/PI3K/AKT/mTOR signaling in human U87 cells assessed as down regulation of FAM111B gene expression at cytotoxic IC50 measured after 48 hrs relative to control
[26] = Inhibition of RTK/PI3K/AKT/mTOR signaling in human U87 cells assessed as down regulation of TJP1 gene expression at cytotoxic IC50 measured after 48 hrs relative to control
[27] = Inhibition of RTK/PI3K/AKT/mTOR signaling in human U87 cells assessed as up regulation of PRKDC gene expression at cytotoxic IC50 measured after 48 hrs relative to control
[28] = Inhibition of RTK/PI3K/AKT/mTOR signaling in human U87 cells assessed as up regulation of peroxisome proliferator activated receptor gamma gene expression at cytotoxic IC50 measured after 48 hrs relative to control
[29] = Inhibition of RTK/PI3K/AKT/mTOR signaling in human U87 cells assessed as down regulation of BCL10 gene expression at cytotoxic IC50 measured after 48 hrs relative to control
[30] = Inhibition of RTK/PI3K/AKT/mTOR signaling in human U87 cells assessed as down regulation of KRTAP2-3 gene expression at cytotoxic IC50 measured after 48 hrs relative to control
[31] = Inhibition of RTK/PI3K/AKT/mTOR signaling in human U87 cells assessed as up regulation of solute carrier family 6 member 9 gene expression at cytotoxic IC50 measured after 48 hrs relative to control
[32] = Inhibition of RTK/PI3K/AKT/mTOR signaling in human U87 cells assessed as down regulation of KLC2 gene expression at cytotoxic IC50 measured after 48 hrs relative to control

Compound: CC(=O)C(=NNc1ccccc1C#N)C(C)=O
- log2FC [1]: -0.597
- log2FC [2]: -1.43
- log2FC [3]: 2.12
- log2FC [4]: -0.896
- log2FC [5]: 0.453
- log2FC [6]: 0.974
- log2FC [7]: 2.37
- log2FC [8]: 1.17
- log2FC [9]: 0.465
- log2FC [10]: -0.801
- log2FC [11]: -0.611
- log2FC [12]: 2.19
- log2FC [13]: 0.484
- log2FC [14]: -0.627
- log2FC [15]: -0.73
- log2FC [16]: 0.793
- log2FC [17]: -0.513
- log2FC [18]: 1.15
- log2FC [19]: 0.56
- log2FC [20]: 0.988
- log2FC [21]: -1.34
- log2FC [22]: -0.602
- log2FC [23]: 0.837
- log2FC [24]: 1.51
- log2FC [25]: -2.29
- log2FC [26]: -0.717
- log2FC [27]: 0.376
- log2FC [28]: 1.16
- log2FC [29]: -0.86
- log2FC [30]: -1.34
- log2FC [31]: 0.954
- log2FC [32]: -0.576
